Cell number change and AC50 data for 61 compounds are collected here from PubChem BioAssay AID2685 (National Center for Advancing Translational Sciences (NCATS), 2010).

Molecules are shown by their SMILES. Some of the results follow. These are further read-outs of the screen, such as a control signal, another cell line or another target. No call is given for them. The list favours compounds with an active or inconclusive main result. The note in brackets gives the kind of curve behind each potency; many fits are weak.

The nature of this test: qHTS Assay for Lipid Storage Modulators in Drosophila S3 Cells.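 As to Cell number change: cells counted by Cell Tracker Red CMTPX staining in the red channel.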 As to conditions: BODIPY lipid droplet fluorescence, 18-24 h; for cell number change: measured here: cell count max response, cells fed with added oleic acid. Put shortly: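 Drosophila S3 cells loaded with oleic acid (400 uM, as added) and compounds at several concentrations; lipid droplets imaged by 488-nm laser-scanning cytometry, 500–530 nm intensity and object ratio to cell channel. Percent activity normalized to 20 uM Triacsin C.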
For orientation: qHTS replaces the single test concentration by a dilution series.

The mark [1] stands for this setting: measured here: lipid fluorescence (Fed channel) AC50, cells fed with added oleic acid.
The mark [2] stands for this setting: measured here: cell number channel AC50, cells fed with added oleic acid.

One may read the AC50 as the concentration giving half of the maximal activity seen. Consider `COc1ccccc1N1CCN(C(=O)C(C)N(c2ccc(C)c(C)c2)S(C)(=O)=O)CC1` (stereo not drawn), for which the cell number change is -0.944%. Moreover, the AC50 under setting [1] was 20.6 µM [rising, single point]. `COC(=O)c1c(C)n(-c2ccccc2)c2ccc(O)cc12`: the cell number change is -6.32%. Besides, the AC50 under setting [1] is 20.6 µM [falling, single point]. As to `O=c1c([N+](=O)[O-])c(O)c2ccccc2n1Cc1ccccc1`, the cell number change was -0.118%. Further, the AC50 under setting [1] is 9.2 µM [rising, partial curve]. `COc1cc(CNC(=O)C2CCC(=O)N(C3CCCCCC3)C2)cc(OC)c1` (stereo not drawn): the cell number change is -16.8%. Also, the AC50 under setting [1] is 29.1 µM [falling, single point]. On to `COc1cc(/C=C/C(=O)NNc2c(F)c(F)cc(F)c2F)ccc1OC(F)F`, for which the cell number change stood at 95.6%. For the same compound, the half-maximal activity concentration (AC50) under setting [2] was 9.2 µM [rising, partial curve]. The AC50 under setting [1] was 0.00517 µM [falling, full curve, poor fit]. With `Cc1cccc(S(=O)(=O)NNC(=O)c2sc(C)nc2C)c1`, the cell number change was -0.122%. Moreover, the AC50 under setting [1] is 0.0206 µM [falling, full curve, poor fit].

Turning to `CCc1cc(/C(Cc2ccccn2)=N\Nc2ccccc2)c(O)cc1O`, the cell number change was 57.9%. Also, the AC50 under setting [2] was 14.6 µM [rising, partial curve]. With `CNC(=O)c1[nH]cnc1C(=O)N[C@@H](Cc1ccccc1)C(=O)OCc1ccccc1`, the AC50 under setting [1] was 0.259 µM [falling, partial curve, poor fit]. `COc1ccccc1NS(=O)(=O)c1ccc(NC(=O)c2ccncc2)cc1`: under setting [2], the AC50 is 6.51 µM [rising, single point]. In the case of `Cc1cc(-n2c(C)cc(C(=O)COc3ccccc3[N+](=O)[O-])c2C)no1`, the cell number change is -19.4%. With `Cc1cccc(NC(=O)CNC(=O)Cc2ccc3c(c2)OCCO3)c1C`, the cell number change was 9.84%. Further, under setting [2], the AC50 is 0.092 µM [falling, full curve, poor fit]. For the same compound, the AC50 under setting [1] is 0.0651 µM [falling, full curve, poor fit]. Consider `O=C(NCCCN1CCOCC1)c1cc2c([nH]c3ccccc32)c(-c2cccc(Br)c2)n1`, for which the cell number change was -7.64%. Under setting [1], the AC50 is 7.31 µM [falling, partial curve, poor fit].

For the compound `CCOC(=O)CSc1nnc(CNc2ccc(Cl)cc2)n1Cc1ccccc1`, the cell number change was -26.2%. Further, under setting [1], the AC50 was 25.9 µM [falling, single point]. For `CCOc1ncccc1C(=O)Nc1cc(S(=O)(=O)N2CCOCC2)ccc1N1CCCC1`, the cell number change turned out to be 39.7%. Also, under setting [1], the AC50 is 29.1 µM [rising, single point]. As to `Cc1ccc2cc(CNC(C)C)c(=O)[nH]c2c1`, the cell number change was 38.3%. For the same compound, the AC50 under setting [1] is 29.1 µM [rising, single point]. With `Cc1nc(C)c(C(=O)N/N=C/c2ccco2)s1`, the AC50 under setting [2] was 0.291 µM [rising, partial curve] and the AC50 under setting [1] is 0.231 µM [rising, full curve]. In the case of `CCN(CC)c1ccc(S(=O)(=O)N2CCOCC2)cc1NS(C)(=O)=O`, the AC50 under setting [2] is 0.58 µM [falling, single point]. On to `O=C(CN(C(=O)CCC(=O)Nc1nccs1)c1ccc(F)cc1)NCc1ccc2c(c1)OCO2`, for which the cell number change was -8.56%. On the same count and under the same terms, the same measure for `CN1CCSc2ccc(C(=O)Nc3ccc(Cl)cc3)cc21`: -5.4%. In the case of `COc1ccc(C=O)cc1COc1ccc([N+](=O)[O-])c(C)c1`, the cell number change is 23.5%. The AC50 under setting [2] is 0.58 µM [falling, full curve].

`CC(CN1C(C)CCCC1C)OC(=O)c1cccc(Br)c1` (stereo not drawn): the AC50 under setting [1] was 0.00461 µM [rising, full curve, poor fit].

For the compound `O=c1[nH]c2ccccc2c(=O)n1Cc1ccco1`, the cell number change came to 14%. With `COc1ccc(C(=O)n2c(C)c(CCO)c(=O)n2C)cc1`, the cell number change was 5.13%. Further, under setting [2], the concentration at half-maximal activity (AC50) was 0.116 µM [falling, full curve]. Besides, the AC50 under setting [1] was 0.146 µM [falling, full curve]. For the compound `CNC(=S)/N=C(\Nc1ccc(C)cc1)c1ccccc1`, the AC50 under setting [1] was 6.51 µM [falling, single point]. With `Cc1ccc(OCC(=O)NNC(=O)c2ccc(NC(=O)C3CC3)cc2)c(C)c1`, the cell number change was determined as 24.8%. Under setting [1], the AC50 is 7.08 µM [rising, full curve]. On to `Cc1cc(C)n(-c2c(C)[nH]c3ccccc23)n1`, for which the cell number change is -11.6%. Also, the AC50 under setting [2] is 0.517 µM [falling, full curve]. In addition, the AC50 under setting [1] is 0.00517 µM [falling, full curve, poor fit]. Regarding `O=C(CSc1nnc(CNC(=O)c2c(F)cccc2F)o1)Nc1ccc2c(c1)OCO2`, the cell number change is -17.2%. Regarding `O=C(CNC1CC1)Nc1cc(C(F)(F)F)ccc1Cl`, the cell number change was -52.2%. For the same compound, the AC50 under setting [2] is 29.1 µM [falling, single point]. Further, under setting [1], the AC50 was 6.51 µM [rising, partial curve, poor fit]. As to `CC(C)CC(NC(=O)C1CCC(C)CC1)C(=O)N1CCN(c2ccccn2)CC1` (stereo not drawn), the cell number change was 37.2%. In addition, the AC50 under setting [2] was 0.184 µM [rising, partial curve, poor fit]. The AC50 under setting [1] is 29.1 µM [rising, single point]. `COc1ccc(Cc2nc(C(=O)Nc3ccc(Cl)cc3)cs2)cc1`: the cell number change was -5.34%. In the case of `O=[N+]([O-])c1cccc(S(=O)(=O)Nc2nc3ccccc3nc2Nc2cccc(S(=O)(=O)N3CCCCC3)c2)c1`, the cell number change was -23.6%. In addition, the AC50 under setting [1] is 11.6 µM [falling, partial curve, poor fit]. With `Nc1ccc2c3c(cccc13)CC2`, the cell number change was -11.8%. The AC50 under setting [1] was 2.31 µM [rising, full curve, poor fit]. As for `COc1ccc(NS(=O)(=O)c2ccc(N)c(C(=O)O)c2)cc1`, the AC50 under setting [1] is 4.61 µM [falling, full curve]. Consider `CCn1ncc(/C=N\NC(=O)c2ccc3c(c2)c(C)c(C)n3Cc2ccccc2)c1C`, for which the AC50 under setting [2] was 2.91 µM [rising, partial curve]. With `CCCC(=O)Nc1nc(CC(=O)OCC)cs1`, the cell number change was -45.6%. The AC50 under setting [1] is 32.6 µM [falling, partial curve, poor fit]. On to `Cc1ccc(-c2ccc(=O)n(CC(=O)Nc3cccc(C(=O)N4CCN(C)CC4)c3)n2)cc1`, for which the cell number change is 1.51%. The AC50 under setting [1] was 0.517 µM [falling, single point]. As for `Cc1cccc(/C(N)=N/OC(=O)COc2ccccc2Cl)c1`, the cell number change was -5.47%. Further, the AC50 under setting [1] is 0.082 µM [falling, full curve, poor fit]. With `CCN(CC)C(=O)CSC(Nc1cccc(F)c1)=C(C#N)C#N`, the cell number change turned out to be 23.5%. In addition, under setting [2], the AC50 was 4.11 µM [rising, full curve, poor fit]. With `Cc1ccc(C)c(-c2nnc(NC(=O)COc3ccccc3)o2)c1`, the cell number change was -8.75%. Under setting [1], the AC50 is 3.26 µM [rising, partial curve].

Turning to `Cn1c(C(C#N)C(=O)Cc2cccc3ccccc23)nc2ccccc21` (stereo not drawn), the cell number change is -2.42%. Further, the AC50 under setting [1] was 16.4 µM [rising, single point]. Turning to `COCc1nnc(NC(=O)CS(=O)(=O)c2ccc(C)cc2)s1`, the cell number change is 23.5%. Regarding `COCCCN=C1NN=C(c2cc(C)n(Cc3ccccc3Cl)c2C)CS1`, the cell number change was found to be 28.9%. Besides, the AC50 under setting [2] is 2.59 µM [rising, full curve, poor fit]. The AC50 under setting [1] was 1.16 µM [rising, full curve, poor fit].

`Cc1cc(O)ccc1N=Cc1c(C(F)(F)F)[nH][nH]c1=O`: the cell number change was -22.3%. For `COc1ccc(NC(=O)c2ccccc2-c2ccccc2)cc1`, the cell number change was determined as 22.8%. The AC50 under setting [2] is 0.366 µM [rising, full curve, poor fit]. In addition, the AC50 under setting [1] is 4.11 µM [rising, single point]. Turning to `CC(C)Oc1ccc(S(=O)(=O)N2CCOCC2)cc1NC(=O)Cc1c(F)cccc1Cl`, the AC50 under setting [2] was 2.91 µM [rising, partial curve].

Turning to `COc1cccc(NC(=S)N2CCC(NC(=O)C3CCCCC3)CC2)c1`, the cell number change came out at 3.15%. Besides, the AC50 under setting [1] was 29.1 µM [falling, single point]. Take `Cc1cccc(NNC(=O)C(=O)NNc2cccc(C)c2)c1`: the cell number change worked out at 31.8%. Under setting [1], the AC50 is 29.1 µM [rising, single point]. `NC(=S)N/N=C/c1ccc(-c2cc(Cl)ccc2Cl)o1`: the AC50 is, setting by setting: under setting [2], 0.092 µM [rising, full curve]; under setting [1], 0.259 µM [rising, full curve].

Regarding `CCOC(=O)c1ccc(N=c2scc(C)n2CC)cc1`, the cell number change turned out to be 79.1%. The AC50 under setting [2] was 23.1 µM [rising, single point].

Consider `CN(C)c1ccc(C(=O)OCc2ccc(Br)cc2)cc1`, for which the cell number change was determined as 120%. For the same compound, the AC50 under setting [2] is 29.1 µM [rising, single point].

With `COc1cc(/C=C/C(=O)NCc2ccccn2)cc(OC)c1OC`, the cell number change worked out at 29.9%. Under setting [1], the AC50 was 10.3 µM [rising, partial curve, poor fit]. For `COC(=O)c1ccc(NS(=O)(=O)N(C)C)cc1`, the cell number change is -18.3%. Besides, under setting [1], the AC50 was 5.8 µM [falling, full curve, poor fit]. For `O=C(Nc1nc2ccccc2s1)c1cccc(S(=O)(=O)N2CCc3ccccc32)c1`, the cell number change was found to be 7.41%. In addition, under setting [1], the AC50 is 6.51 µM [rising, partial curve]. For the compound `Cc1ccc(NC(=O)CC(=O)Nc2ccc(C)c(C)c2)cc1C`, under setting [1], the AC50 is 7.31 µM [rising, partial curve]. For the compound `CC1CCCCC1NC(=O)CCNS(=O)(=O)c1ccc(Cl)cc1` (stereo not drawn), the cell number change is 4.96%. Under setting [1], the AC50 was 6.51 µM [rising, single point].

Regarding `COc1cccc(CC2(CO)CCCN(Cc3cn[nH]c3-c3ccccc3)C2)c1` (stereo not drawn), the cell number change is -19.8%. Besides, the AC50 under setting [1] was 0.164 µM [falling, full curve].

Take `CCNC(=S)N/N=C(\C)c1ccc2c(c1)OCCO2`: the cell number change was determined as 4.58%. Further, the AC50 under setting [1] was 3.26 µM [rising, full curve, poor fit]. In the case of `CC(OC(=O)CCCN=C1NS(=O)(=O)c2ccccc21)C(=O)Nc1ccccc1[N+](=O)[O-]` (stereo not drawn), the cell number change was -15.8%. Under setting [1], the AC50 was 18.4 µM [falling, single point]. As for `CC1(C)Cc2cccc(OCC(N)=O)c2O1`, the cell number change came to 31.9%. For the same compound, the AC50 under setting [2] is 32.6 µM [rising, single point]. In addition, the AC50 under setting [1] is 18.4 µM [rising, single point]. On to `COCCN(C(=O)COC(=O)C1CC1)c1c(N)n(Cc2ccccc2)c(=O)[nH]c1=O`, for which the cell number change is -11.3%. For `CCCCN(Cc1cc2ccccc2[nH]c1=O)C(=O)c1ccccn1`, the cell number change stood at 58.9%. In addition, the half-maximal activity concentration (AC50) under setting [2] is 29.1 µM [rising, single point].
